Among the data in article PMC3735459 are binding values, retold here.

These are yes or no findings as the source states them, for the method shown. Binding seen in cells or lysates may run through a third protein. Some binding calls cover weakened binding; strength is not graded here.

The target in the assay is T1, endogenous Hippo (Hpo) of S2 cells (Drosophila melanogaster (endogenous in S2 cells)) (UniProt Q8T0S6).
T1 sequence: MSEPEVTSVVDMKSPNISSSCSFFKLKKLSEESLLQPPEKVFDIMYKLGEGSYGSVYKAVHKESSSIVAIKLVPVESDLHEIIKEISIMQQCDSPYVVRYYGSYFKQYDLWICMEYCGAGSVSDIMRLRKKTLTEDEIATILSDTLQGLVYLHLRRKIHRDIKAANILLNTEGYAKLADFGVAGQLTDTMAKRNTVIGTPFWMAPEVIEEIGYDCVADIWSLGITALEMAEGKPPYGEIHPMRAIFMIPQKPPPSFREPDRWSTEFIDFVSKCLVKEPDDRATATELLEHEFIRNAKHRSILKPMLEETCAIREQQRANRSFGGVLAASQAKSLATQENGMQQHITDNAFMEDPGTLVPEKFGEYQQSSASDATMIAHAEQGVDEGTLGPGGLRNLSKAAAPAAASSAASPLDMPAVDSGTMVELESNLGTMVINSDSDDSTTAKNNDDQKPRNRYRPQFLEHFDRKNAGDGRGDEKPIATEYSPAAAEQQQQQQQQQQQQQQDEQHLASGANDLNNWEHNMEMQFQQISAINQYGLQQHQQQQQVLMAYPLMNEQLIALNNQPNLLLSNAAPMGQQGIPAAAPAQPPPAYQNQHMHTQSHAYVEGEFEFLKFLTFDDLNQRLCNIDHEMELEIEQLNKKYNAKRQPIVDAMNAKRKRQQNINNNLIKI
Nature of the assay: co-IP; S2 cells transfected with Sav, with or without Par-1 or Par-1-KD; interaction of Sav with endogenous Hpo tested by immunoprecipitation (Figure 6C).

B1: Salvador (Sav), transfected (protein, UniProt Q9VCR6 1-608)
chain: MNYLTILLCNRKPTMLSRRNKEKSQHKEGVVGKYMKKDTPPDISVINVWSDQRAKKKSLQRCASTSPSCEFHPRSSSTSRNTYSCTDSQPDYYHARRAQSQMPLQQHSHSHPHSLPHPSHPHVRSHPPLPPHQFRASSNQLSQNSSNYVNFEQIERMRRQQSSPLLQTTSSPAPGAGGFQRSYSTTQRQHHPHLGGDSYDADQGLLSASYANMLQLPQRPHSPAHYAVPPQQQQHPQIHQQHASTPFGSTLRFDRAAMSIRERQPRYQPTSSPMQQQQQQQQQQQQQLQHTQLAAHLGGSYSSDSYPIYENPSRVISMRATQSQRSESPIYSNTTASSATLAVVPQHHHQGHLAVPSGSGGGSLSGSGRGGSSGSVRGASTSVQSLYVPPRTPPSAVAGAGGSANGSLQKVPSQQSLTEPEELPLPPGWATQYTLHGRKYYIDHNAHTTHWNHPLEREGLPVGWRRVVSKMHGTYYENQYTGQSQRQHPCLTSYYVYTTSAEPPKAIRPEASLYAPPTHTHNALVPANPYLLEEIPKWLAVYSEADSSKDHLLQFNMFSLPELEGFDSMLVRLFKQELGTIVGFYERYRRALILEKNRRAGQNQNQNQ
Regarding B1, the binding result is “binds”.
